Laboratory results as given in doi:10.1101/233213.
Results are given in words; binding and its absence hold for the method and conditions named. Binding seen in cells or lysates may run through a third protein. Some results given as binding are weak or reduced against the parent protein; the word gives no strength. Tags and fused reporters may be left off the sequences shown.

T1: GlyT2 (neuronal glycine transporter 2), wild type (rat) (UniProt P58295)
T1 sequence: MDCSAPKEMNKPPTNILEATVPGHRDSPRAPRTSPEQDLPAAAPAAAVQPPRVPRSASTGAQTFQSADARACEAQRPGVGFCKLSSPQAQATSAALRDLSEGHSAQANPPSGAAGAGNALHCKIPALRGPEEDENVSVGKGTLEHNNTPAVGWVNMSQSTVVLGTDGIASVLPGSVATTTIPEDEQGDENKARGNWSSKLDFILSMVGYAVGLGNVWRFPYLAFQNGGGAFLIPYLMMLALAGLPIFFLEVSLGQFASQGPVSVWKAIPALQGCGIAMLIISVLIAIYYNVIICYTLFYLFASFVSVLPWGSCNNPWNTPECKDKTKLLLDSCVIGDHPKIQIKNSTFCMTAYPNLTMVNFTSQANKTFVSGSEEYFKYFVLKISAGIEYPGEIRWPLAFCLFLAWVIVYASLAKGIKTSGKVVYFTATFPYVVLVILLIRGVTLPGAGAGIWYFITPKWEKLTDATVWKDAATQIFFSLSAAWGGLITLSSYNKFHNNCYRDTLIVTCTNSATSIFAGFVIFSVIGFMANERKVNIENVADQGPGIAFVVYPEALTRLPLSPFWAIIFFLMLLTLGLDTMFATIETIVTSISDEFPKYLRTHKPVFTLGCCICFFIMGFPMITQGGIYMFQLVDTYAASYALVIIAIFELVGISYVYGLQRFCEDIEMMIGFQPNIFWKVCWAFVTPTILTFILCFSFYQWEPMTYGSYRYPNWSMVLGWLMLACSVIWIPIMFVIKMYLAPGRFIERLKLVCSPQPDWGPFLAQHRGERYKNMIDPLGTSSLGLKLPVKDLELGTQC

T2: GlyT2 expressed in primary cortical neurons (rat) (UniProt P58295)
T2 sequence: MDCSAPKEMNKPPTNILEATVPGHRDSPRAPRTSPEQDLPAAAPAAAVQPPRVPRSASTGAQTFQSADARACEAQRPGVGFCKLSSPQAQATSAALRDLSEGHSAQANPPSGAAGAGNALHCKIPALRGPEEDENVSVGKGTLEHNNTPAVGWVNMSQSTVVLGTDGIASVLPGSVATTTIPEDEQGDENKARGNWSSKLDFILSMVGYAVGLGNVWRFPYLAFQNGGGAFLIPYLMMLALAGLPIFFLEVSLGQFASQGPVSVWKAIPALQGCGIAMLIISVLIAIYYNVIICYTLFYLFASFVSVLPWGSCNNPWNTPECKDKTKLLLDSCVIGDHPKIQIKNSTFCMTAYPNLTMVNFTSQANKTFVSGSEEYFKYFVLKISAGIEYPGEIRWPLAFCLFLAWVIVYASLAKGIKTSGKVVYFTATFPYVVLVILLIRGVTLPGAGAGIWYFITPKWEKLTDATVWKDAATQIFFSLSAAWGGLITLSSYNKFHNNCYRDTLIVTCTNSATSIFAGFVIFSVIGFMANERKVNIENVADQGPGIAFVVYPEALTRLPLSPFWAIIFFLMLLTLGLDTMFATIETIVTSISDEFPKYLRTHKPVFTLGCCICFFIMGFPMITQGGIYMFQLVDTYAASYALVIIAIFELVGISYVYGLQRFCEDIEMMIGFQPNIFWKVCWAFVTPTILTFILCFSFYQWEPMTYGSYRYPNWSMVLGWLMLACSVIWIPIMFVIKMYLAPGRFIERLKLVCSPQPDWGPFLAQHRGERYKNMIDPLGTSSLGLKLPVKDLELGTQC

T3: FLAG-tagged p80-LNX1 (Ligand of Numb protein X1, isoform p80) (UniProt O70263)
T3 sequence: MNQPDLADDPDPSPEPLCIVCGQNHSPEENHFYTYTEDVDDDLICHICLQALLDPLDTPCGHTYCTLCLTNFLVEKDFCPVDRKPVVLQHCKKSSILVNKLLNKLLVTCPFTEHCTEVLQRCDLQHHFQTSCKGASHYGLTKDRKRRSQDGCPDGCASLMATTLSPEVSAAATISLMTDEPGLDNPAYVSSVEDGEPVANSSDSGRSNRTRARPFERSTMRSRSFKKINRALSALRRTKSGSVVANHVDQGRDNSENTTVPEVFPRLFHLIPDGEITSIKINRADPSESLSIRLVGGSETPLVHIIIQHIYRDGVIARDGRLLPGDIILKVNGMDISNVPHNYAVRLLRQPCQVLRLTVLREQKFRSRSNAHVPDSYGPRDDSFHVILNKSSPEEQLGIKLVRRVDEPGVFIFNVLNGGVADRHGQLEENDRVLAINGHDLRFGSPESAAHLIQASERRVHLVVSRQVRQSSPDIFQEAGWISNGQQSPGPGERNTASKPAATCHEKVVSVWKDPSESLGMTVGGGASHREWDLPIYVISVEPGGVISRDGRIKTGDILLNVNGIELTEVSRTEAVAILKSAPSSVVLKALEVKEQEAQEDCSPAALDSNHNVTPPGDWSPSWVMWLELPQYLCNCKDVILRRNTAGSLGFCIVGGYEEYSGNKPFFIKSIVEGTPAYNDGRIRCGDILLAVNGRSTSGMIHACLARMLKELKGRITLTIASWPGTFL


Tests used:
Assay in all cases: co-IP
[1] = molecular target: T1, GlyT2 (neuronal glycine transporter 2), wild type (rat)
[2] = molecular target: T2, GlyT2 expressed in primary cortical neurons (rat)
[3] = molecular target: T3, FLAG-tagged p80-LNX1 (Ligand of Numb protein X1, isoform p80)

Row | binding [3] | Binder | further results
1 | – | FLAG-tagged p80-LNX1^C45A (enzyme, UniProt O70263 1-728) MNQPDLADDPDPSPEPLCIVCGQNHSPEENHFYTYTEDVDDDLIAHICLQALLDPLDTPCGHTYCTLCLTNFLVEKDFCPVDRKPVVLQHCKKSSILVNKLLNKLLVTCPFTEHCTEVLQRCDLQHHFQTSCKGASHYGLTKDRKRRSQDGCPDGCASLMATTLSPEVSAAATISLMTDEPGLDNPAYVSSVEDGEPVANSSDSGRSNRTRARPFERSTMRSRSFKKINRALSALRRTKSGSVVANHVDQGRDNSENTTVPEVFPRLFHLIPDGEITSIKINRADPSESLSIRLVGGSETPLVHIIIQHIYRDGVIARDGRLLPGDIILKVNGMDISNVPHNYAVRLLRQPCQVLRLTVLREQKFRSRSNAHVPDSYGPRDDSFHVILNKSSPEEQLGIKLVRRVDEPGVFIFNVLNGGVADRHGQLEENDRVLAINGHDLRFGSPESAAHLIQASERRVHLVVSRQVRQSSPDIFQEAGWISNGQQSPGPGERNTASKPAATCHEKVVSVWKDPSESLGMTVGGGASHREWDLPIYVISVEPGGVISRDGRIKTGDILLNVNGIELTEVSRTEAVAILKSAPSSVVLKALEVKEQEAQEDCSPAALDSNHNVTPPGDWSPSWVMWLELPQYLCNCKDVILRRNTAGSLGFCIVGGYEEYSGNKPFFIKSIVEGTPAYNDGRIRCGDILLAVNGRSTSGMIHACLARMLKELKGRITLTIASWPGTFL | binding [1]: binds
2 | – | FLAG-tagged p80-LNX1 expressed in primary cortical neurons (enzyme, UniProt O70263 1-728) MNQPDLADDPDPSPEPLCIVCGQNHSPEENHFYTYTEDVDDDLICHICLQALLDPLDTPCGHTYCTLCLTNFLVEKDFCPVDRKPVVLQHCKKSSILVNKLLNKLLVTCPFTEHCTEVLQRCDLQHHFQTSCKGASHYGLTKDRKRRSQDGCPDGCASLMATTLSPEVSAAATISLMTDEPGLDNPAYVSSVEDGEPVANSSDSGRSNRTRARPFERSTMRSRSFKKINRALSALRRTKSGSVVANHVDQGRDNSENTTVPEVFPRLFHLIPDGEITSIKINRADPSESLSIRLVGGSETPLVHIIIQHIYRDGVIARDGRLLPGDIILKVNGMDISNVPHNYAVRLLRQPCQVLRLTVLREQKFRSRSNAHVPDSYGPRDDSFHVILNKSSPEEQLGIKLVRRVDEPGVFIFNVLNGGVADRHGQLEENDRVLAINGHDLRFGSPESAAHLIQASERRVHLVVSRQVRQSSPDIFQEAGWISNGQQSPGPGERNTASKPAATCHEKVVSVWKDPSESLGMTVGGGASHREWDLPIYVISVEPGGVISRDGRIKTGDILLNVNGIELTEVSRTEAVAILKSAPSSVVLKALEVKEQEAQEDCSPAALDSNHNVTPPGDWSPSWVMWLELPQYLCNCKDVILRRNTAGSLGFCIVGGYEEYSGNKPFFIKSIVEGTPAYNDGRIRCGDILLAVNGRSTSGMIHACLARMLKELKGRITLTIASWPGTFL | binding [2]: binds
3 | binds | GlyT2-4KR (protein, UniProt P58295 1-799) MDCSAPKEMNKPPTNILEATVPGHRDSPRAPRTSPEQDLPAAAPAAAVQPPRVPRSASTGAQTFQSADARACEAQRPGVGFCKLSSPQAQATSAALRDLSEGHSAQANPPSGAAGAGNALHCKIPALRGPEEDENVSVGKGTLEHNNTPAVGWVNMSQSTVVLGTDGIASVLPGSVATTTIPEDEQGDENKARGNWSSKLDFILSMVGYAVGLGNVWRFPYLAFQNGGGAFLIPYLMMLALAGLPIFFLEVSLGQFASQGPVSVWKAIPALQGCGIAMLIISVLIAIYYNVIICYTLFYLFASFVSVLPWGSCNNPWNTPECKDKTKLLLDSCVIGDHPKIQIKNSTFCMTAYPNLTMVNFTSQANKTFVSGSEEYFKYFVLKISAGIEYPGEIRWPLAFCLFLAWVIVYASLAKGIKTSGKVVYFTATFPYVVLVILLIRGVTLPGAGAGIWYFITPKWEKLTDATVWKDAATQIFFSLSAAWGGLITLSSYNKFHNNCYRDTLIVTCTNSATSIFAGFVIFSVIGFMANERKVNIENVADQGPGIAFVVYPEALTRLPLSPFWAIIFFLMLLTLGLDTMFATIETIVTSISDEFPKYLRTHKPVFTLGCCICFFIMGFPMITQGGIYMFQLVDTYAASYALVIIAIFELVGISYVYGLQRFCEDIEMMIGFQPNIFWKVCWAFVTPTILTFILCFSFYQWEPMTYGSYRYPNWSMVLGWLMLACSVIWIPIMFVIKMYLAPGRFIERLRLVCSPQPDWGPFLAQHRGERYRNMIDPLGTSSLGLRLPVRDLELGTQC | –
4 | binds | GlyT2 (neuronal glycine transporter 2), wild type (protein, UniProt P58295 1-799) MDCSAPKEMNKPPTNILEATVPGHRDSPRAPRTSPEQDLPAAAPAAAVQPPRVPRSASTGAQTFQSADARACEAQRPGVGFCKLSSPQAQATSAALRDLSEGHSAQANPPSGAAGAGNALHCKIPALRGPEEDENVSVGKGTLEHNNTPAVGWVNMSQSTVVLGTDGIASVLPGSVATTTIPEDEQGDENKARGNWSSKLDFILSMVGYAVGLGNVWRFPYLAFQNGGGAFLIPYLMMLALAGLPIFFLEVSLGQFASQGPVSVWKAIPALQGCGIAMLIISVLIAIYYNVIICYTLFYLFASFVSVLPWGSCNNPWNTPECKDKTKLLLDSCVIGDHPKIQIKNSTFCMTAYPNLTMVNFTSQANKTFVSGSEEYFKYFVLKISAGIEYPGEIRWPLAFCLFLAWVIVYASLAKGIKTSGKVVYFTATFPYVVLVILLIRGVTLPGAGAGIWYFITPKWEKLTDATVWKDAATQIFFSLSAAWGGLITLSSYNKFHNNCYRDTLIVTCTNSATSIFAGFVIFSVIGFMANERKVNIENVADQGPGIAFVVYPEALTRLPLSPFWAIIFFLMLLTLGLDTMFATIETIVTSISDEFPKYLRTHKPVFTLGCCICFFIMGFPMITQGGIYMFQLVDTYAASYALVIIAIFELVGISYVYGLQRFCEDIEMMIGFQPNIFWKVCWAFVTPTILTFILCFSFYQWEPMTYGSYRYPNWSMVLGWLMLACSVIWIPIMFVIKMYLAPGRFIERLKLVCSPQPDWGPFLAQHRGERYKNMIDPLGTSSLGLKLPVKDLELGTQC | –
5 | binds | GlyT2-Δ8cter (domain or fragment, UniProt P58295 1-791) MDCSAPKEMNKPPTNILEATVPGHRDSPRAPRTSPEQDLPAAAPAAAVQPPRVPRSASTGAQTFQSADARACEAQRPGVGFCKLSSPQAQATSAALRDLSEGHSAQANPPSGAAGAGNALHCKIPALRGPEEDENVSVGKGTLEHNNTPAVGWVNMSQSTVVLGTDGIASVLPGSVATTTIPEDEQGDENKARGNWSSKLDFILSMVGYAVGLGNVWRFPYLAFQNGGGAFLIPYLMMLALAGLPIFFLEVSLGQFASQGPVSVWKAIPALQGCGIAMLIISVLIAIYYNVIICYTLFYLFASFVSVLPWGSCNNPWNTPECKDKTKLLLDSCVIGDHPKIQIKNSTFCMTAYPNLTMVNFTSQANKTFVSGSEEYFKYFVLKISAGIEYPGEIRWPLAFCLFLAWVIVYASLAKGIKTSGKVVYFTATFPYVVLVILLIRGVTLPGAGAGIWYFITPKWEKLTDATVWKDAATQIFFSLSAAWGGLITLSSYNKFHNNCYRDTLIVTCTNSATSIFAGFVIFSVIGFMANERKVNIENVADQGPGIAFVVYPEALTRLPLSPFWAIIFFLMLLTLGLDTMFATIETIVTSISDEFPKYLRTHKPVFTLGCCICFFIMGFPMITQGGIYMFQLVDTYAASYALVIIAIFELVGISYVYGLQRFCEDIEMMIGFQPNIFWKVCWAFVTPTILTFILCFSFYQWEPMTYGSYRYPNWSMVLGWLMLACSVIWIPIMFVIKMYLAPGRFIERLKLVCSPQPDWGPFLAQHRGERYKNMIDPLGTSSLGLKLPVK | –
